For some assays here: A negative result means that nothing was seen under these conditions. For some assays here: At least one verdict rests on a figure or table, not on a statement of the authors. For some assays here: The exact form of at least one protein or probe is not confirmed. For some assays here: Weaker means in comparison with the reference protein, sequence or condition of that experiment. For some assays here: Protein sequences can lack the tags named with them.
Experiments:
[1] = biological target: T1, GT198 (Hop2), C-terminally truncated del181-217 (human) (UniProt Q9P2W1); assay: plate binding assay (immobilized protein, streptavidin-HRP chemiluminescence); settings: 100 nM doxorubicin (competitive, curve shifted right, Km increased); biotin before the first printed base (5'); 20 mM Tris-HCl pH 7.5, 50 mM NaCl, 75 mM KCl, 0.5 mM MgCl2, 0.05% Triton X-100, 10% glycerol, 1 mM DTT; 4 C, 4 h to overnight; 400 ng/well GT198 plus 5 ug BSA; recombinant protein; residues 1-180; protein details: N-terminal His; label: biotin; single-stranded …
T1 sequence (looked up): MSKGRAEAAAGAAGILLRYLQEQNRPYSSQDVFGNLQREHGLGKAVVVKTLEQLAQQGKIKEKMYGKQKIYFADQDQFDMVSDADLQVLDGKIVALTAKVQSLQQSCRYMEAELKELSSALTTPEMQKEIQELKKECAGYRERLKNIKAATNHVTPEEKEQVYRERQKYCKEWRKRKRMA

Protein sequences, listed by entry. Tags and fused reporters are not part of them. Residues count along the entry.
UniProt P02769, 25-607: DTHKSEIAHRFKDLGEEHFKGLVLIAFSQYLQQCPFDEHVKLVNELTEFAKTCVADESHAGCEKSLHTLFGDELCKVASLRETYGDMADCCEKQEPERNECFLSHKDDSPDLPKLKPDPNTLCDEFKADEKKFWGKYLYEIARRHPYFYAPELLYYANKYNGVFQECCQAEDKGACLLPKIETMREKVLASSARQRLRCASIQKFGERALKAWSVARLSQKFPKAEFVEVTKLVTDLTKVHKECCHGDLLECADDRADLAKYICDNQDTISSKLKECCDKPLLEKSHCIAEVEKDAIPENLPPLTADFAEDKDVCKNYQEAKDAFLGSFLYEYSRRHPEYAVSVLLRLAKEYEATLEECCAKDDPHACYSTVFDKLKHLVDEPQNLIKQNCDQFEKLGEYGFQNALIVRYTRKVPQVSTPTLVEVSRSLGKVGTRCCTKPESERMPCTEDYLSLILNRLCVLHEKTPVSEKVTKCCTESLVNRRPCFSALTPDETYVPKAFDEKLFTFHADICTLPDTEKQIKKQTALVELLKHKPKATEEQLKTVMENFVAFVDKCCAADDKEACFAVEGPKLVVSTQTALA

BSA = BSA (UniProt P02769); assay: as above; settings: BSA alone, negative control; biotin before the first printed base (5'); 20 mM Tris-HCl pH 7.5, 50 mM NaCl, 75 mM KCl, 0.5 mM MgCl2, 0.05% Triton X-100, 10% glycerol, 1 mM DTT; 4 C, 4 h to overnight; 400 ng/well GT198 plus 5 ug BSA; commercial protein; label: biotin; single-stranded DNA

“CCTGGGGTTGCTGAGGTCCTGGCAG [biotin 25-mer ssDNA]”: binds more weakly [1]; no binding (BSA).
